For the test, the target named is T1, AT-rich interacting domain 3A (ARID3A) (human (endogenous in Huh7)) (UniProt Q99856).
T1 sequence: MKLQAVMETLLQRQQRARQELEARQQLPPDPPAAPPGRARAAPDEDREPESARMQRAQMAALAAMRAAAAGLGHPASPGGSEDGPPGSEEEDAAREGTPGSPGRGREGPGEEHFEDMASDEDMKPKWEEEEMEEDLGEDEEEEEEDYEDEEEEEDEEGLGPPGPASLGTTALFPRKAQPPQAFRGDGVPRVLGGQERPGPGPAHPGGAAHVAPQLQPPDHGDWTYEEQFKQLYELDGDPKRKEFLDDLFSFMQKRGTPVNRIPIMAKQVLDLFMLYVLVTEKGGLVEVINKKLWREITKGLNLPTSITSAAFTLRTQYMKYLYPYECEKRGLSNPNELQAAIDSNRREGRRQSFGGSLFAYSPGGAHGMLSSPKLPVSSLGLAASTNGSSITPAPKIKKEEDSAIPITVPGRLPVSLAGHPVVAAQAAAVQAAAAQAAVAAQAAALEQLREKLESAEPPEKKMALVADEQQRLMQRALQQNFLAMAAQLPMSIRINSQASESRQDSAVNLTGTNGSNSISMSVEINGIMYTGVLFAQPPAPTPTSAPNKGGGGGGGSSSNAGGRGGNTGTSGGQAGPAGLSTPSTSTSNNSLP
Put plainly: affinity purification with mass spectrometry; Co-IP of ARID3A followed by LC-MS in Huh7 cells; IgG control; hits had more than 1 unique peptide and no IgG-specific peptides.

No constants are given. Whether binding was seen depends on the method and setting. In cells and extracts the contact can be indirect. Here binding means that the protein was enriched with, or labelled near, the bait; the list need not be complete.

B1: centrosomal protein 131 kDa (CEP131) (protein, UniProt Q9UPN4 1-1083)
chain: MKGTRAIGSVPERSPAGVDLSLTGLPPPVSRRPGSAATTKPIVRSVSVVTGSEQKRKVLEATGPGGSQAINNLRRSNSTTQVSQPRSGSPRPTEPTDFLMLFEGSPSGKKRPASLSTAPSEKGATWNVLDDQPRGFTLPSNARSSSALDSPAGPRRKECTVALAPNFTANNRSNKGAVGNCVTTMVHNRYTPSERAPPLKSSNQTAPSLNNIIKAATCEGSESSGFGKLPKNVSSATHSARNNTGGSTGLPRRKEVTEEEAERFIHQVNQATVTIQRWYRHQVQRRGAGAARLEHLLQAKREEQRQRSGEGTLLDLHQQKEAARRKAREEKARQARRAAIQELQQKRALRAQKASTAERGPPENPRETRVPGMRQPAQELSPTPGGTAHQALKANNTGGGLPAAGPGDRCLPTSDSSPEPQQPPEDRTQDVLAQDAAGDNLEMMAPSRGSAKSRGPLEELLHTLQLLEKEPDVLPRPRTHHRGRYAWASEVTTEDDASSLTADNLEKFGKLSAFPEPPEDGTLLSEAKLQSIMSFLDEMEKSGQDQLDSQQEGWVPEAGPGPLELGSEVSTSVMRLKLEVEEKKQAMLLLQRALAQQRDLTARRVKETEKALSRQLQRQREHYEATIQRHLAFIDQLIEDKKVLSEKCEAVVAELKQEDQRCTERVAQAQAQHELEIKKLKELMSATEKARREKWISEKTKKIKEVTVRGLEPEIQKLIARHKQEVRRLKSLHEAELLQSDERASQRCLRQAEELREQLEREKEALGQQERERARQRFQQHLEQEQWALQQQRQRLYSEVAEERERLGQQAARQRAELEELRQQLEESSSALTRALRAEFEKGREEQERRHQMELNTLKQQLELERQAWEAGRTRKEEAWLLNREQELREEIRKGRDKEIELVIHRLEADMALAKEESEKAAESRIKRLRDKYEAELSELEQSERKLQERCSELKGQLGEAEGENLRLQGLVRQKERALEDAQAVNEQLSSERSNLAQVIRQEFEDRLAASEEETRQAKAELATLQARQQLELEEVHRRVKTALARKEEAVSSLRTQHEAAVKRADHLEELLEQHRRPTPSTK
Take B1: the binding entry is on record as “binds”.

These data come from article PMC9411159.
